{
  "source": "the supplement of paper PMC8728848",
  "binders": {"B1": {"name": "PX9961W-pdi-543-27-543 (Parabacteroides distasonis) (protein)", "chain": "EGNATTTSYFLNDQQAIDAIDGLYERFHQEGCYGRELFWEQGAACDIVWGRTRGYNSLATLAYTGDESPLRDVFSRMYSTMSRANWIIQELVKKEKGTTLTAVEKRSLGEAYFSRGWAHYLIAYRYGTDKQGVPFVRYEDFPDDYDNSIPPQQATVMDNYKLIIEDMDKAIAYLPIFESYDADNRGRAHQAAAVAFKAKTYAYWATWDATQWNNVIEMVNQLENNYNRDLAPTFAELFSSDLKDYWNAEYLWTIPSIGGALPGGTEFPGIILENKGWGKYNGWGQMKPSYDIYEEMAKDGKGNDRLVRSILEYNQEFPFFGETRKFWSTSDLEAGFMINKYMDAFKYSDPVGEGAVSANGDWPTVRVNFPIIRFAEMLLFRAEAYLMTGQADKATADINRIRLRSNLTPLTGTATMKDLYHERRCELAFEFTDHLFDLKRWNRSSNADIKTLADKELNAHPRIRRYEDRANPESAFTIIGYEDYTNKNAYQAHMMVFPYPSEEITKSNGQLKQNEGY"}},
  "assay_in_all_cases": "glycan array binding signal (z-score within array); higher = stronger binding",
  "conditions_in_all_cases": "glycan notation: IUPAC condensed, linker removed",
  "key": {"[1]": {"target": "Gal(b1-3)[Fuc(a1-4)]GlcNAc(b1-6)GalNAc", "how_it_was_run": "(§1)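 From the Consortium for Functional Glycomics database, 3228 arrays were curated, keeping only those whose protein sequence was available. Binding is given as a within-array Z-score averaged across arrays sharing a protein sequence and across linkers. Negative Z-scores can be read as non-binding.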"}, "[2]": {"target": "Gal(b1-3)[GlcNAc(b1-6)]GalNAc", "how_it_was_run": "as §1"}, "[3]": {"target": "Gal(b1-3)[Neu5Ac(a2-6)]GalNAc", "how_it_was_run": "as §1"}, "[4]": {"target": "Gal(b1-3)[Neu5Ac(a2-6)]GlcNAc(b1-4)Gal(b1-4)Glc", "how_it_was_run": "as §1"}, "[5]": {"target": "Gal(b1-3)[Neu5Ac(b2-6)]GalNAc", "how_it_was_run": "as §1"}, "Gal(b1-4)Gal": {"target": "Gal(b1-4)Gal", "how_it_was_run": "as §1"}, "[6]": {"target": "Gal(b1-4)GalNAc(a1-3)[Fuc(a1-2)]Gal(b1-4)GlcNAc", "how_it_was_run": "as §1"}, "[7]": {"target": "Gal(b1-4)GalNAc(b1-3)[Fuc(a1-2)]Gal(b1-4)GlcNAc", "how_it_was_run": "as §1"}, "Gal(b1-4)Glc": {"target": "Gal(b1-4)Glc", "how_it_was_run": "as §1"}, "Gal(b1-4)Glc6S": {"target": "Gal(b1-4)Glc6S", "how_it_was_run": "as §1"}, "Gal(b1-4)GlcNAc": {"target": "Gal(b1-4)GlcNAc", "how_it_was_run": "as §1"}, "[8]": {"target": "Gal(b1-4)GlcNAc(a1-6)Gal(b1-4)GlcNAc", "how_it_was_run": "as §1"}, "Gal(b1-4)GlcNAc(b1-2)Man": {"target": "Gal(b1-4)GlcNAc(b1-2)Man", "how_it_was_run": "as §1"}, "[9]": {"target": "Gal(b1-4)GlcNAc(b1-2)Man(a1-3)Man(b1-4)GlcNAc(b1-4)GlcNAc", "how_it_was_run": "as §1"}, "[10]": {"target": "Gal(b1-4)GlcNAc(b1-2)Man(a1-3)[Gal(b1-4)GlcNAc(b1-2)Man(a1-6)]Man(b1-4)GlcNAc(b1-4)GlcNAc", "how_it_was_run": "as §1"}, "[11]": {"target": "Gal(b1-4)GlcNAc(b1-2)Man(a1-3)[Gal(b1-4)GlcNAc(b1-2)Man(a1-6)]Man(b1-4)GlcNAc(b1-4)[Fuc(a1-6)]GlcNAc", "how_it_was_run": "as §1"}, "[12]": {"target": "Gal(b1-4)GlcNAc(b1-2)Man(a1-3)[Gal(b1-4)GlcNAc(b1-2)Man(a1-6)][Gal(b1-4)GlcNAc(b1-4)]Man(b1-4)GlcNAc(b1-4)[Fuc(a1-6)]GlcNAc", "how_it_was_run": "as §1"}, "[13]": {"target": "Gal(b1-4)GlcNAc(b1-2)Man(a1-3)[Gal(b1-4)GlcNAc(b1-2)Man(a1-6)][GlcNAc(b1-4)]Man(b1-4)GlcNAc(b1-4)[Fuc(a1-6)]GlcNAc", "how_it_was_run": "as §1"}, "[14]": {"target": "Gal(b1-4)GlcNAc(b1-2)Man(a1-3)[GlcNAc(b1-2)Man(a1-6)]Man(b1-4)GlcNAc(b1-4)GlcNAc", "how_it_was_run": "as §1"}, "[15]": {"target": "Gal(b1-4)GlcNAc(b1-2)Man(a1-3)[GlcNAc(b1-4)][Gal(b1-4)GlcNAc(b1-2)Man(a1-6)]Man(b1-4)GlcNAc(b1-4)GlcNAc", "how_it_was_run": "as §1"}, "[16]": {"target": "Gal(b1-4)GlcNAc(b1-2)Man(a1-3)[Man(a1-6)]Man(b1-4)GlcNAc(b1-4)GlcNAc", "how_it_was_run": "as §1"}, "[17]": {"target": "Gal(b1-4)GlcNAc(b1-2)Man(a1-6)Man(b1-4)GlcNAc(b1-4)GlcNAc", "how_it_was_run": "as §1"}, "[18]": {"target": "Gal(b1-4)GlcNAc(b1-2)Man(a1-6)[GlcNAc(b1-2)Man(a1-3)]Man(b1-4)GlcNAc(b1-4)GlcNAc", "how_it_was_run": "as §1"}, "[19]": {"target": "Gal(b1-4)GlcNAc(b1-2)Man(a1-6)[Man(a1-3)]Man(b1-4)GlcNAc(b1-4)GlcNAc", "how_it_was_run": "as §1"}, "[20]": {"target": "Gal(b1-4)GlcNAc(b1-2)[Gal(b1-4)GlcNAc(b1-4)]Man(a1-3)[Gal(b1-4)GlcNAc(b1-2)Man(a1-6)]Man(b1-4)GlcNAc(b1-4)GlcNAc", "how_it_was_run": "as §1"}, "[21]": {"target": "Gal(b1-4)GlcNAc(b1-2)[Gal(b1-4)GlcNAc(b1-4)]Man(a1-3)[Gal(b1-4)GlcNAc(b1-2)[Gal(b1-4)GlcNAc(b1-6)]Man(a1-6)]Man(b1-4)GlcNAc(b1-4)GlcNAc", "how_it_was_run": "as §1"}, "[22]": {"target": "Gal(b1-4)GlcNAc(b1-2)[Gal(b1-4)GlcNAc(b1-4)]Man(a1-3)[GlcNAc(b1-4)][Gal(b1-4)GlcNAc(b1-2)Man(a1-6)]Man(b1-4)GlcNAc(b1-4)GlcNAc", "how_it_was_run": "as §1"}, "[23]": {"target": "Gal(b1-4)GlcNAc(b1-2)[Gal(b1-4)GlcNAc(b1-4)]Man(a1-3)[GlcNAc(b1-4)][Gal(b1-4)GlcNAc(b1-2)[Gal(b1-4)GlcNAc(b1-6)]Man(a1-6)]Man(b1-4)GlcNAc(b1-4)GlcNAc", "how_it_was_run": "as §1"}, "[24]": {"target": "Gal(b1-4)GlcNAc(b1-2)[Gal(b1-4)GlcNAc(b1-6)]Man(a1-6)[Gal(b1-4)GlcNAc(b1-2)Man(a1-3)]Man(b1-4)GlcNAc(b1-4)GlcNAc", "how_it_was_run": "as §1"}, "[25]": {"target": "Gal(b1-4)GlcNAc(b1-2)[Gal(b1-4)GlcNAc(b1-6)]Man(a1-6)[Gal(b1-4)GlcNAc(b1-2)Man(a1-3)]Man(b1-4)GlcNAc(b1-4)[Fuc(a1-6)]GlcNAc", "how_it_was_run": "as §1"}, "[26]": {"target": "Gal(b1-4)GlcNAc(b1-2)[Gal(b1-4)GlcNAc(b1-6)]Man(a1-6)[GlcNAc(b1-4)][Gal(b1-4)GlcNAc(b1-2)Man(a1-3)]Man(b1-4)GlcNAc(b1-4)GlcNAc", "how_it_was_run": "as §1"}, "[27]": {"target": "Gal(b1-4)GlcNAc(b1-2)[Gal(b1-4)GlcNAc(b1-6)]Man(a1-6)[GlcNAc(b1-4)][Gal(b1-4)GlcNAc(b1-2)[Gal(b1-4)GlcNAc(b1-4)]Man(a1-3)]Man(b1-4)GlcNAc(b1-4)[Fuc(a1-6)]GlcNAc", "how_it_was_run": "as §1"}, "[28]": {"target": "Gal(b1-4)GlcNAc(b1-3)Gal(b1-3)GalNAc", "how_it_was_run": "as §1"}, "[29]": {"target": "Gal(b1-4)GlcNAc(b1-3)Gal(b1-3)GlcNAc", "how_it_was_run": "as §1"}, "[30]": {"target": "Gal(b1-4)GlcNAc(b1-3)Gal(b1-4)Glc", "how_it_was_run": "as §1"}, "[31]": {"target": "Gal(b1-4)GlcNAc(b1-3)Gal(b1-4)GlcNAc", "how_it_was_run": "as §1"}, "[32]": {"target": "Gal(b1-4)GlcNAc(b1-3)Gal(b1-4)GlcNAc(b1-2)Man(a1-3)[Gal(b1-4)GlcNAc(b1-3)Gal(b1-4)GlcNAc(b1-2)Man(a1-6)]Man(b1-4)GlcNAc(b1-4)GlcNAc", "how_it_was_run": "as §1"}, "[33]": {"target": "Gal(b1-4)GlcNAc(b1-3)Gal(b1-4)GlcNAc(b1-2)Man(a1-3)[Gal(b1-4)GlcNAc(b1-3)Gal(b1-4)GlcNAc(b1-2)Man(a1-6)]Man(b1-4)GlcNAc(b1-4)[Fuc(a1-6)]GlcNAc", "how_it_was_run": "as §1"}},
  "note": "This is one part of the list.",
  "data": [
    {"binder": "B1", "values": [
      {"measurement": "glycan array binding signal (z-score)", "setting": "[1]", "value": 0.297},
      {"measurement": "glycan array binding signal (z-score)", "setting": "[2]", "value": 0.083},
      {"measurement": "glycan array binding signal (z-score)", "setting": "[3]", "value": -0.081},
      {"measurement": "glycan array binding signal (z-score)", "setting": "[4]", "value": 0.508},
      {"measurement": "glycan array binding signal (z-score)", "setting": "[5]", "value": -0.599},
      {"measurement": "glycan array binding signal (z-score)", "setting": "Gal(b1-4)Gal", "value": -1.05},
      {"measurement": "glycan array binding signal (z-score)", "setting": "[6]", "value": -0.928},
      {"measurement": "glycan array binding signal (z-score)", "setting": "[7]", "value": -0.73},
      {"measurement": "glycan array binding signal (z-score)", "setting": "Gal(b1-4)Glc", "value": -0.032},
      {"measurement": "glycan array binding signal (z-score)", "setting": "Gal(b1-4)Glc6S", "value": -1.04},
      {"measurement": "glycan array binding signal (z-score)", "setting": "Gal(b1-4)GlcNAc", "value": 0.002},
      {"measurement": "glycan array binding signal (z-score)", "setting": "[8]", "value": -1.03},
      {"measurement": "glycan array binding signal (z-score)", "setting": "Gal(b1-4)GlcNAc(b1-2)Man", "value": 0.965},
      {"measurement": "glycan array binding signal (z-score)", "setting": "[9]", "value": -0.759},
      {"measurement": "glycan array binding signal (z-score)", "setting": "[10]", "value": 0.803},
      {"measurement": "glycan array binding signal (z-score)", "setting": "[11]", "value": -0.2},
      {"measurement": "glycan array binding signal (z-score)", "setting": "[12]", "value": -0.642},
      {"measurement": "glycan array binding signal (z-score)", "setting": "[13]", "value": -0.894},
      {"measurement": "glycan array binding signal (z-score)", "setting": "[14]", "value": 0.169},
      {"measurement": "glycan array binding signal (z-score)", "setting": "[15]", "value": -0.751},
      {"measurement": "glycan array binding signal (z-score)", "setting": "[16]", "value": -0.027},
      {"measurement": "glycan array binding signal (z-score)", "setting": "[17]", "value": 1.08},
      {"measurement": "glycan array binding signal (z-score)", "setting": "[18]", "value": 0.677},
      {"measurement": "glycan array binding signal (z-score)", "setting": "[19]", "value": 0.053},
      {"measurement": "glycan array binding signal (z-score)", "setting": "[20]", "value": 1.85},
      {"measurement": "glycan array binding signal (z-score)", "setting": "[21]", "value": -0.742},
      {"measurement": "glycan array binding signal (z-score)", "setting": "[22]", "value": -0.379},
      {"measurement": "glycan array binding signal (z-score)", "setting": "[23]", "value": 0.011},
      {"measurement": "glycan array binding signal (z-score)", "setting": "[24]", "value": -1.14},
      {"measurement": "glycan array binding signal (z-score)", "setting": "[25]", "value": 0.703},
      {"measurement": "glycan array binding signal (z-score)", "setting": "[26]", "value": -0.468},
      {"measurement": "glycan array binding signal (z-score)", "setting": "[27]", "value": -0.459},
      {"measurement": "glycan array binding signal (z-score)", "setting": "[28]", "value": -0.72},
      {"measurement": "glycan array binding signal (z-score)", "setting": "[29]", "value": -0.076},
      {"measurement": "glycan array binding signal (z-score)", "setting": "[30]", "value": 0.173},
      {"measurement": "glycan array binding signal (z-score)", "setting": "[31]", "value": -0.301},
      {"measurement": "glycan array binding signal (z-score)", "setting": "[32]", "value": 1.2},
      {"measurement": "glycan array binding signal (z-score)", "setting": "[33]", "value": 0.618}
    ]}
  ]
}
